Some results were stated once for a whole list of compounds, not compound by compound.
Assay: Hydrodynamic diameter of complexes by dynamic light scattering (DLS)
Type: physicochemical
Conditions: N/P 6
Description: Sizes of complexes described in the present examples were analyzed by DynaPro PlateReader II, using dynamic light scattering (DLS) for calculating the hydrodynamic diameter of complexes. The formulations are measured by diluting the sample to 0.0125 mg/mL RNA in 120 μl of MGB (10 mM MES, pH 6.1, 5% D-Glucose) 5% in wells of a 96-well plate. Ten acquisitions are recorded per well, each lasting 5 seconds.

## CCCCCCCCCC(=O)OC1C(OC(=O)CCCCCCCCC)[C@H](OC(=O)CCCCCCCCC)C(CSCCNC(=S)NCCN2CCOCC2)O[C@@H]1O[C@H]1OC(CSCCNC(=S)NCCN2CCOCC2)[C@@H](OC(=O)CCCCCCCCC)C(OC(=O)CCCCCCCCC)C1OC(=O)CCCCCCCCC (some centres unmarked) [JLF99]
  Hydrodynamic diameter of complexes with modRNA: over 100 nm

## CCCCCCCCCC(=O)OC1C(OC(=O)CCCCCCCCC)[C@H](OC(=O)CCCCCCCCC)C(CSCCNC(=S)NCCN(CCNC(C)=O)CCNC(C)=O)O[C@@H]1O[C@H]1OC(CSCCNC(=S)NCCN(CCNC(C)=O)CCNC(C)=O)[C@@H](OC(=O)CCCCCCCCC)C(OC(=O)CCCCCCCCC)C1OC(=O)CCCCCCCCC (some centres unmarked) [JLF131]
  Hydrodynamic diameter of complexes with modRNA: over 100 nm

From patent US20240425541A1, “OLIGOSACCHARIDE COMPOUNDS AND COMPLEXES” (priority 2021, published 2024)
